Measured values reported in patent US9884841B2, “Small molecule inhibitors of Mcl-1 and uses thereof” (The Regents of the University of Michigan, priority 2015, dated 2018).
Some results were stated once for a whole list of compounds, not compound by compound.

The chains behind the UniProt entries cited, without tags or fusion partners.
UniProt Q07820, whole entry: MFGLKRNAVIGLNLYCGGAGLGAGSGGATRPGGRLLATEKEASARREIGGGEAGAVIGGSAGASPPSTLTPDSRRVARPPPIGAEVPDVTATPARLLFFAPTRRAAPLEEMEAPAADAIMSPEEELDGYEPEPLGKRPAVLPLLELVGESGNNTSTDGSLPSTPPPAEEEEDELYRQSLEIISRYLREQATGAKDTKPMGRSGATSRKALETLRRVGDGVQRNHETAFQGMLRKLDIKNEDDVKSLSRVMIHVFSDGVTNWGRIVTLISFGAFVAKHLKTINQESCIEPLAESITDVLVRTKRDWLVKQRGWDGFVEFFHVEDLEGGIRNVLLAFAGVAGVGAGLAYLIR

Target: Mcl-1 (Homo sapiens, UniProt Q07820)
Assay: Cell-free functional assay with purified mitochondria, Smac release, Mcl-1
Assay type: biochemical
Settings: 10 nM BIM BH3 peptide, 30 nM Mcl-1

Structure (SMILES)	concentration from which BIM-induced release of Smac protein from mitochondria is restored [µM]
CC(C)c1cc(NC(=O)c2ccc(Oc3ccccc3)cc2)c(C(=O)O)cc1-c1ccc(COc2cccc(C(F)(F)F)c2)cc1 [Compound 483, 6-isopropyl-4-(4-phenoxybenzamido)-4′-((3-(trifluoromethyl)phenoxy)methyl)-[1,1′-biphenyl]-3-carboxylic acid]	≥ 1
CC(C)c1cc(NC(=O)c2ccc(Oc3ccc(F)cc3)cc2)c(C(=O)O)cc1-c1ccc(COc2cccc(C(F)(F)F)c2)cc1 [Compound 487, 4-(4-(4-fluorophenoxy)benzamido)-6-isopropyl-4′-((3-(trifluoromethyl)phenoxy)methyl)-[1,1′-biphenyl]-3-carboxylic acid]	≥ 1
